Test results: the supplement of paper PMC10849652
The list shows a part of the results.

By UniProt entry, the sequences of proteins in these tests, tags left out. Where a name states a change or a piece, a line headed by the entry shows the natural chain unless it says otherwise.
UniProt P49917: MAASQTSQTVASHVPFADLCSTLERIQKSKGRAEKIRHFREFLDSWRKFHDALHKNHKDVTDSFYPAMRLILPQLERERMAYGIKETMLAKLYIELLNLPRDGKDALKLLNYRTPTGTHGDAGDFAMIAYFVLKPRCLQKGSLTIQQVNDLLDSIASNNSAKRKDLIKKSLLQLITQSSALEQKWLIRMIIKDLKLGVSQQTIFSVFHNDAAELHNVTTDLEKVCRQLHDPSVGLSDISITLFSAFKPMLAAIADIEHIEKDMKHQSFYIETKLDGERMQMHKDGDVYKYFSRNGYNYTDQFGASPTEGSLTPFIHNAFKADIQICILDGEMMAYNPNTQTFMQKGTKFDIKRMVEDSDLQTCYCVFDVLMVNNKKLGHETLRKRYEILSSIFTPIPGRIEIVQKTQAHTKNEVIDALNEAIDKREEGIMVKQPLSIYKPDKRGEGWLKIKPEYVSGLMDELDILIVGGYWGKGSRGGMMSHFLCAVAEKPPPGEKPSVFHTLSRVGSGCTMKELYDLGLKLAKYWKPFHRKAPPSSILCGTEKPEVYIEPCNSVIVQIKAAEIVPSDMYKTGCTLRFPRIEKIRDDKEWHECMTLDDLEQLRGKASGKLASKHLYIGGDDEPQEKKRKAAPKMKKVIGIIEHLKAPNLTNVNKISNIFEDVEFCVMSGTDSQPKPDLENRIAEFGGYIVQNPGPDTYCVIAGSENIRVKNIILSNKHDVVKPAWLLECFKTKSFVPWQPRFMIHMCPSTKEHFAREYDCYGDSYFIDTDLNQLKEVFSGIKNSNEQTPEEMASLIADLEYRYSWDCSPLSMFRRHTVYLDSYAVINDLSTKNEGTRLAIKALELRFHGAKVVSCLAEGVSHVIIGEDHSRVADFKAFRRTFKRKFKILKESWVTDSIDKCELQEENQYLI
UniProt Q6MZP7: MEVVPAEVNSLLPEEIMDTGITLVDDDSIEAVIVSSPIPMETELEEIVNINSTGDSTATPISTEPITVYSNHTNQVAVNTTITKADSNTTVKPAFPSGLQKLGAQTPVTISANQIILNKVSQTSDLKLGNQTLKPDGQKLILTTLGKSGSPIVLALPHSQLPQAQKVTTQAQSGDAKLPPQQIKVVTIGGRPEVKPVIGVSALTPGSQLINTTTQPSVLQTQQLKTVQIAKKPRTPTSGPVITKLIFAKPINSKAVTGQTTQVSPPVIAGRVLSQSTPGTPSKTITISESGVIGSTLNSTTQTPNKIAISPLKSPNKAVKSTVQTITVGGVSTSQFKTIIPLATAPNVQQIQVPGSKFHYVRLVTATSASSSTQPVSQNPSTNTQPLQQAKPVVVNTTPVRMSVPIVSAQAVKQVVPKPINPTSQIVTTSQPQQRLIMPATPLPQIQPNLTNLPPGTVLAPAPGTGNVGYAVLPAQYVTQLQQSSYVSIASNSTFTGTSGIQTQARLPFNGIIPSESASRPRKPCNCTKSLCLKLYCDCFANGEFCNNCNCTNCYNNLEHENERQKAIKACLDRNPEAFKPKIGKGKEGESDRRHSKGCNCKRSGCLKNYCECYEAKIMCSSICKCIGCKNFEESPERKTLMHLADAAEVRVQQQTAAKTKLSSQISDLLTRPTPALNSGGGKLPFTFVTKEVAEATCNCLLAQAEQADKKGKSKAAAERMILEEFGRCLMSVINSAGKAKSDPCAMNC
UniProt Q9H0V9: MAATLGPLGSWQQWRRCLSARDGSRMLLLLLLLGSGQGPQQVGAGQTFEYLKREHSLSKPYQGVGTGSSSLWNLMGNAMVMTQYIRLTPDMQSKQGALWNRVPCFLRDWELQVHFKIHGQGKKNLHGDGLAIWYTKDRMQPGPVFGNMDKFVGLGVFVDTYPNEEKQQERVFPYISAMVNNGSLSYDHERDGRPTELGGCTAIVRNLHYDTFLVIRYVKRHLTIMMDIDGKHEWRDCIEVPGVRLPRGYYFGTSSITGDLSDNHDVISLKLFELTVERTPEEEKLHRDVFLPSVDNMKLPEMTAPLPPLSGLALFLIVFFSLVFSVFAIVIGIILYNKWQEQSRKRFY
UniProt Q12907: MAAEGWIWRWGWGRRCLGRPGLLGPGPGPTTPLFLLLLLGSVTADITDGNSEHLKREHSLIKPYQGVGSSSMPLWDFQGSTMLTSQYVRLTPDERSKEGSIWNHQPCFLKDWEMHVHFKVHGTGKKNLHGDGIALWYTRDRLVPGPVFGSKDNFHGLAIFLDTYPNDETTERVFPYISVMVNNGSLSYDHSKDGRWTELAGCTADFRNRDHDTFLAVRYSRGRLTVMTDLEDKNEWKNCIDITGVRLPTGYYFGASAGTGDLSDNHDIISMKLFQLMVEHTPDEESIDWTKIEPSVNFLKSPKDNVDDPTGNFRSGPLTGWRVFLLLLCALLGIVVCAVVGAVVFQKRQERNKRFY
UniProt Q6ZN17: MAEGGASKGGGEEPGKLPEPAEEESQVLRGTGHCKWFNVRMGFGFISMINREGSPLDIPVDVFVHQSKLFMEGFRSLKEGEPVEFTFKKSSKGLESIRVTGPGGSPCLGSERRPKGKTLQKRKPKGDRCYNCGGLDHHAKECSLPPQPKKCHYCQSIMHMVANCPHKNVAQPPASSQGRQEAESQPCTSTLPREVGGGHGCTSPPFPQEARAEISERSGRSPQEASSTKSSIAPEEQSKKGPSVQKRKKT
UniProt Q8IWU2: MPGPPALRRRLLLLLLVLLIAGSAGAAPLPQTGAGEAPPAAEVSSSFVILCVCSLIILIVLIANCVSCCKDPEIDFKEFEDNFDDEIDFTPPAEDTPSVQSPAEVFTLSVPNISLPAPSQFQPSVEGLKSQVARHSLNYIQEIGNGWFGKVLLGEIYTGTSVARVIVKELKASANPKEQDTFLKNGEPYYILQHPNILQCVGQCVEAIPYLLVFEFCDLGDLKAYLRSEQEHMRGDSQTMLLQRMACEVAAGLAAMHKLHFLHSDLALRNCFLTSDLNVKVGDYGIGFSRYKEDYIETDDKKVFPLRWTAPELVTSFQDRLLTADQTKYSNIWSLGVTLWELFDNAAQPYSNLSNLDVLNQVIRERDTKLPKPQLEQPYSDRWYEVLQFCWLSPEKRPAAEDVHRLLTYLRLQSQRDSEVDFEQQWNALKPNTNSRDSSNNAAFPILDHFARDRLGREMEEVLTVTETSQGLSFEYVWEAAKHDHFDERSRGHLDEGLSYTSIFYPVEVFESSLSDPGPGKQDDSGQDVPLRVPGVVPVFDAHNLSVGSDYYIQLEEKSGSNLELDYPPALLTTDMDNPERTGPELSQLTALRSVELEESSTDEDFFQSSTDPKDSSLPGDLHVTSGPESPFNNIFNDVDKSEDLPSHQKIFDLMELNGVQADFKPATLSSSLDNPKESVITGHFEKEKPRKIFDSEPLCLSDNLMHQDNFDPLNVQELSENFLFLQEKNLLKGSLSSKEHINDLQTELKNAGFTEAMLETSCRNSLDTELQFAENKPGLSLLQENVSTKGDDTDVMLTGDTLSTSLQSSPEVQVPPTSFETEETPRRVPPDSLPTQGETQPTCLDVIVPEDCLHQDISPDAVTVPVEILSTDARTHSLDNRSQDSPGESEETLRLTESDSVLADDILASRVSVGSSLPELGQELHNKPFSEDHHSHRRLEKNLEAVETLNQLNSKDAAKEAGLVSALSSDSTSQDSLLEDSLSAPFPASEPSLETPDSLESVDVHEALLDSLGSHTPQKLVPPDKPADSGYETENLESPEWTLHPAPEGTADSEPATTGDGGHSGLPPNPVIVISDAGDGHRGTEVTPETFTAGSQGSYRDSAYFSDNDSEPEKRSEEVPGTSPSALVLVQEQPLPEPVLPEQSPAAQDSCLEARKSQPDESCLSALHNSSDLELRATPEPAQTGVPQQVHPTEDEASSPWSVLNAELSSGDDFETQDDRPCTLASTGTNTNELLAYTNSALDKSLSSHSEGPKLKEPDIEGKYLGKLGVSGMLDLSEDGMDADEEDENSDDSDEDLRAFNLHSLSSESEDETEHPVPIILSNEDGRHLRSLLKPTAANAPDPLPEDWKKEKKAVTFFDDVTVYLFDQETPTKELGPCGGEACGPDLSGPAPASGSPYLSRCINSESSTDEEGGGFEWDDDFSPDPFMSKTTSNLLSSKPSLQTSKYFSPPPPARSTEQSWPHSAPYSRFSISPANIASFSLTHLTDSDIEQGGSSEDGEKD
UniProt Q9BX40: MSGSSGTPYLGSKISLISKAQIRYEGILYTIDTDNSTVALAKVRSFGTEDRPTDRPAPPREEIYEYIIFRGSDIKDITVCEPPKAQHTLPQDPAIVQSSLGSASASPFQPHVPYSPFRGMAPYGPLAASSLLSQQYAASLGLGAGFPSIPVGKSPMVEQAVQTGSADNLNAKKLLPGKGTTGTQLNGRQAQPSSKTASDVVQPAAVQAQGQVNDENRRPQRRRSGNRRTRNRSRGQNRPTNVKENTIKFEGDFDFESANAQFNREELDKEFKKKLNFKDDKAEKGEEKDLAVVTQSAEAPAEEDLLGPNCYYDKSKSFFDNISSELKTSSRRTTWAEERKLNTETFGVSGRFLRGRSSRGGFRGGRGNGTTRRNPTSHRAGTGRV
UniProt P09382, whole entry, looked up: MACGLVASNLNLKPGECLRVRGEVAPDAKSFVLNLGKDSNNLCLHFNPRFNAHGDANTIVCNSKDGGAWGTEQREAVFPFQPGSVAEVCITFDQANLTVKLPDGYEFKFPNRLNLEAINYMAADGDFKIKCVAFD
UniProt Q8N1G4: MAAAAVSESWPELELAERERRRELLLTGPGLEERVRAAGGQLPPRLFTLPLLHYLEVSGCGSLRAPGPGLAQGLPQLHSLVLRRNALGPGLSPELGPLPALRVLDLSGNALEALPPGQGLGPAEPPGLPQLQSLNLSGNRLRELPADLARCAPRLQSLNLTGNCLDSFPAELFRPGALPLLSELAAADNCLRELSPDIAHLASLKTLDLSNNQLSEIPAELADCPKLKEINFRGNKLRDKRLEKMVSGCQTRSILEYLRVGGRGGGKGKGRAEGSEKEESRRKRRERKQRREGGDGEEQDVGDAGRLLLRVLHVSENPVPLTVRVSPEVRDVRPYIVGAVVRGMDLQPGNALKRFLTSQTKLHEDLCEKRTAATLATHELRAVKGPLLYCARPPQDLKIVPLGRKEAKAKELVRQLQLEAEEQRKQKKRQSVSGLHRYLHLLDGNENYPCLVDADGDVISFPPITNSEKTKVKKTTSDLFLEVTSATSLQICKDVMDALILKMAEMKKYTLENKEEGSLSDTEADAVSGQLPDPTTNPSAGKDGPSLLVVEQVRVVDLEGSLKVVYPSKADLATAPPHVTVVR
UniProt Q8TDW0: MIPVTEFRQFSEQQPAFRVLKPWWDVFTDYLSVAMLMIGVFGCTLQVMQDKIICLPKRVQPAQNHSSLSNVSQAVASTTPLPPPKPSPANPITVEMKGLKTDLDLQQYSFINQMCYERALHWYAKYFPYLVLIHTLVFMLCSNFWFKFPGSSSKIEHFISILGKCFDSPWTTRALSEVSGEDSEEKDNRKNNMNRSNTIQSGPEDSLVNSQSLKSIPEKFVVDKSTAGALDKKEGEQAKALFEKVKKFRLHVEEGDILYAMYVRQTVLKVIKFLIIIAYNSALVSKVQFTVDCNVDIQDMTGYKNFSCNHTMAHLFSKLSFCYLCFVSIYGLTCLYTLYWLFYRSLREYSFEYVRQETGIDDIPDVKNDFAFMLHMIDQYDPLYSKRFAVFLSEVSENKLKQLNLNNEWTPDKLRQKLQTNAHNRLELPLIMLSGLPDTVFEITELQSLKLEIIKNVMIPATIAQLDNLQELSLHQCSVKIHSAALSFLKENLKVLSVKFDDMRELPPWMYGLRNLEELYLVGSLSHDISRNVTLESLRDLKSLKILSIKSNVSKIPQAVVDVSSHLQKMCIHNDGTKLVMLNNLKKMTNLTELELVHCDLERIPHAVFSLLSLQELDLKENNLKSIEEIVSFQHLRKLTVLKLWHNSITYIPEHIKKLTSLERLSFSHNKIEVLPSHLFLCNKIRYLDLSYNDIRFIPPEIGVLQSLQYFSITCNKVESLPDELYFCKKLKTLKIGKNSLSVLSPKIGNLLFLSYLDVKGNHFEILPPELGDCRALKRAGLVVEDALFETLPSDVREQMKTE
UniProt O15116: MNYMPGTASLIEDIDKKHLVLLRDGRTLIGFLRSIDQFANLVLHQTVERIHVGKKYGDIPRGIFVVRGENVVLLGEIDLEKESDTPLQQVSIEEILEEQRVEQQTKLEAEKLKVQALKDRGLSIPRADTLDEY
UniProt P07195, whole entry, looked up: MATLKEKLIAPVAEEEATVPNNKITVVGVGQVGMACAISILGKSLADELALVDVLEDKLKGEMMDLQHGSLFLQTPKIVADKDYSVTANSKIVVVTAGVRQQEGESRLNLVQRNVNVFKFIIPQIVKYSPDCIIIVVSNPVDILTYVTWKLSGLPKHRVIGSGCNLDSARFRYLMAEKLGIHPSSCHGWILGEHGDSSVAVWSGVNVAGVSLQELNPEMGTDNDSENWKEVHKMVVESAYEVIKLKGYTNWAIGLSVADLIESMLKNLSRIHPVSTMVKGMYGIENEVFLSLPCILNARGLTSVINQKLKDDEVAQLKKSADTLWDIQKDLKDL

Assays:
Experiment in all cases: log2 fold change, soluble protein after heating vs DMSO (PISA); higher = thermal stabilisation; K562 lysate, 10 uM; active = over 0.2 and 3.5 SD of the protein, either way, in both replicates (recomputed)
vemurafenib = compound: CCCS(=O)(=O)Nc1ccc(F)c(C(=O)c2c[nH]c3ncc(-c4ccc(Cl)cc4)cc23)c1F [vemurafenib]
Outline: (§1)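 K562 pellets were dounce-homogenised in PBS pH 7.4 with 1 mM MgCl2, and the crude extract at 1 mg/mL protein was treated with 10 μM compound for 30 min. Aliquots were heated for 3 min across 48°C-58°C, pooled, and brought to 0.5% NP-40 at 4°C; soluble protein was the supernatant after 21,000xg for 90 min. Soluble protein was quantified by TMTpro 16plex LC-MS/MS with channel sums equalised, and reported as log2 fold change in thermal stability against DMSO controls, with values from duplicates.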

[1] = compound: CCCS(=O)(=O)Nc1ccc(F)c(C(=O)c2c[nH]c3ncc(Cl)cc23)c1F
Outline: as §1

barasertib = compound: CCN(CCCOc1ccc2c(Nc3cc(CC(=O)Nc4cccc(F)c4)[nH]n3)ncnc2c1)CCOP(=O)(O)O [barasertib]
Outline: as §1

[2] = compound: CC[C@@H]1C(=O)N(C)c2cnc(Nc3ccc(C(=O)NC4CCN(C)CC4)cc3OC)nc2N1C1CCCC1
Outline: as §1

volasertib = compound: CC[C@@H]1C(=O)N(C)c2cnc(Nc3ccc(C(=O)N[C@H]4CC[C@H](N5CCN(CC6CC6)CC5)CC4)cc3OC)nc2N1C(C)C [volasertib]
Outline: as §1

[3] = compound: CCn1c(C(=O)N(C2CC2)C2CC2)cc2c3c(ncn3C)c(Nc3cc(C)n(C)n3)nc21
Outline: as §1

[4] = compound: CCn1cc(-c2ccnc3[nH]c(-c4cccc(CN(C)C)c4)cc23)c(-c2ccc(NC(=O)N(C)C)cc2)n1
Outline: as §1

[5] = compound: CN1CCC(CNc2ccc3ncc(-c4cccc(OC(F)(F)F)c4)n3n2)CC1
Outline: as §1

saracatinib = compound: CN1CCN(CCOc2cc(OC3CCOCC3)c3c(Nc4c(Cl)ccc5c4OCO5)ncnc3c2)CC1 [saracatinib]
Outline: as §1

sotrastaurin = compound: CN1CCN(c2nc(C3=C(c4c[nH]c5ccccc45)C(=O)NC3=O)c3ccccc3n2)CC1 [sotrastaurin]
Outline: as §1

Target | log2 fold change (vemurafenib) | log2 fold change [1] | log2 fold change (barasertib) | log2 fold change [2] | log2 fold change (volasertib) | log2 fold change [3] | log2 fold change [4] | log2 fold change [5] | log2 fold change (saracatinib) | log2 fold change (sotrastaurin)
LIG4 (UniProt P49917) | inactive: 0.041 | inactive: -0.034 | inactive: -0.04 | inactive: -0.087 | inactive: -0.182 | inactive: -0.027 | inactive: -0.105 | inactive: 0.018 | inactive: 0.027 | inactive: 0.048
LARS2 (UniProt Q15031) | inactive: -0.015 | inactive: 0.007 | inactive: 0.077 | inactive: -0.103 | inactive: -0.081 | inactive: 0.061 | inactive: 0.024 | inactive: -0.073 | inactive: 0.029 | inactive: 0.072
LIN54 (UniProt Q6MZP7) | inactive: 0.149 | inactive: -0.001 | inactive: 0.053 | inactive: 0.019 | inactive: -0.037 | inactive: 0.034 | inactive: -0.103 | inactive: 0.104 | inactive: -0.034 | inactive: 0.01
LDB1 (UniProt Q86U70) | inactive: 0.015 | inactive: 0.02 | inactive: 0.03 | inactive: 0.063 | inactive: -0.021 | inactive: -0.022 | inactive: -0.049 | inactive: 0.114 | inactive: 0 | inactive: -0.057
LETMD1 isoform 7 (UniProt Q6P1Q0) | inactive: 0.136 | inactive: 0.026 | inactive: 0.053 | inactive: -0.043 | inactive: 0.003 | inactive: 0.014 | inactive: -0.089 | inactive: -0.32 | inactive: -0.075 | inactive: 0.035
LMAN2L isoform 2 (UniProt Q9H0V9) | inactive: -0.017 | inactive: 0.007 | inactive: 0.037 | inactive: 0.034 | inactive: -0.004 | inactive: -0.042 | inactive: -0.072 | inactive: -0.033 | inactive: 0.003 | inactive: 0.009
LMO2 isoform 3 (UniProt P25791) | inactive: 0.009 | inactive: 0.148 | inactive: 0.007 | inactive: -0.59 | inactive: 0.031 | inactive: -0.023 | inactive: -0.053 | inactive: 0.145 | inactive: 0.004 | inactive: -0.029
LMAN2 (UniProt Q12907) | inactive: -0.017 | inactive: -0.013 | inactive: 0.011 | inactive: 0.053 | inactive: 0.002 | inactive: -0.016 | inactive: -0.169 | inactive: 0.054 | inactive: -0.036 | inactive: 0.002
LNPEP (UniProt Q9UIQ6) | inactive: -0.018 | inactive: 0.013 | inactive: -0.004 | inactive: 0.021 | inactive: 0.024 | inactive: -0.023 | inactive: -0.082 | inactive: 0.049 | inactive: 0.025 | inactive: 0.029
LNPK (UniProt Q9C0E8) | inactive: -0.012 | inactive: -0.038 | inactive: -0.025 | inactive: 0.066 | inactive: 0.011 | inactive: 0.036 | inactive: -0.204 | inactive: 0.042 | inactive: 0.023 | inactive: 0.005
LIN28B (UniProt Q6ZN17) | inactive: -0.013 | inactive: -0.006 | inactive: -0.017 | inactive: 0.017 | inactive: 0.004 | inactive: -0.017 | inactive: -0.041 | inactive: 0.034 | inactive: 0.025 | inactive: 0.009
LRRC7 (UniProt Q96NW7) | inactive: 0.112 | inactive: -0.024 | inactive: 0.062 | inactive: 0.056 | inactive: 0.047 | inactive: -0.008 | inactive: -0.033 | inactive: -0.043 | inactive: -0.044 | inactive: -0.012
LEPR (UniProt P48357) | inactive: 0.027 | inactive: -0.039 | inactive: 0.015 | inactive: 0.009 | inactive: 0.014 | inactive: 0.03 | inactive: 0.004 | inactive: 0.044 | inactive: 0.058 | inactive: 0.025
LMTK2 (UniProt Q8IWU2) | inactive: 0.017 | inactive: 0.071 | inactive: -0.05 | inactive: 0.018 | inactive: -0.105 | inactive: -0.063 | inactive: -0.029 | inactive: 0.063 | inactive: 0.044 | inactive: 0
LGALS8 isoform 2 (UniProt O00214) | inactive: -0.02 | inactive: 0.036 | inactive: 0.018 | inactive: 0.038 | inactive: -0.001 | inactive: -0.038 | inactive: 0.018 | inactive: 0.017 | inactive: -0.028 | inactive: 0.005
LRRC14 (UniProt Q15048) | inactive: 0.025 | inactive: 0.085 | inactive: -0.033 | inactive: -0.143 | inactive: -0.038 | inactive: 0.088 | inactive: -0.079 | inactive: 0.083 | inactive: 0.071 | inactive: 0.028
LSM14B isoform 2 (UniProt Q9BX40) | inactive: 0.07 | inactive: -0.017 | inactive: -0.005 | inactive: -0.04 | inactive: -0.015 | inactive: 0.014 | inactive: -0.073 | inactive: 0.037 | inactive: 0.014 | inactive: -0.064
LGALS1 (UniProt P09382) | inactive: 0.011 | inactive: -0.014 | inactive: 0.111 | inactive: 0.03 | inactive: 0.052 | inactive: -0.005 | inactive: -0.016 | inactive: -0.042 | inactive: -0.031 | inactive: -0.054
LRRC47 (UniProt Q8N1G4) | inactive: -0.014 | inactive: -0.001 | inactive: -0.009 | inactive: -0.012 | inactive: 0.011 | inactive: -0.002 | inactive: -0.055 | inactive: 0.049 | inactive: 0.005 | inactive: -0.024
LRRC8C (UniProt Q8TDW0) | inactive: 0.146 | inactive: -0.073 | inactive: -0.013 | inactive: -0.133 | inactive: -0.088 | inactive: -0.06 | inactive: 0.012 | inactive: 0.055 | inactive: 0.103 | inactive: 0.012
LBR (UniProt Q14739) | inactive: 0.012 | inactive: 0.008 | inactive: 0.041 | inactive: 0.014 | inactive: 0.156 | inactive: 0.052 | inactive: 0.117 | inactive: -0.22 | inactive: 0.064 | inactive: 0.048
LDLR (UniProt P01130) | inactive: -0.015 | inactive: 0.034 | inactive: 0.122 | inactive: 0.104 | inactive: -0.115 | inactive: 0.121 | inactive: -0.019 | inactive: 0.094 | inactive: 0.007 | inactive: 0.051
LASP1 (UniProt Q14847) | inactive: 0.025 | inactive: -0.02 | inactive: -0.043 | inactive: 0.032 | inactive: 0.012 | inactive: 0.02 | inactive: -0.038 | inactive: 0.022 | inactive: -0.006 | inactive: -0.01
LSM1 (UniProt O15116) | inactive: -0.046 | inactive: 0.038 | inactive: -0.079 | inactive: 0.04 | inactive: 0.031 | inactive: 0.084 | inactive: -0.186 | inactive: 0.029 | inactive: -0.025 | inactive: -0.019
LDHB (UniProt P07195) | inactive: 0.007 | inactive: -0.009 | inactive: -0.033 | inactive: 0.024 | inactive: 0.038 | inactive: -0.036 | inactive: -0.007 | inactive: 0.047 | inactive: -0.006 | inactive: 0.002
LIMA1 isoform 4 (UniProt Q9UHB6) | inactive: 0.011 | inactive: 0.021 | inactive: 0.012 | inactive: 0.052 | inactive: 0.003 | inactive: -0.037 | inactive: 0.048 | inactive: -0.044 | inactive: 0.012 | inactive: -0.021
LIN37 (UniProt Q96GY3) | inactive: 0.179 | inactive: -0.101 | inactive: 0.019 | inactive: 0.069 | inactive: 0.031 | inactive: 0.155 | inactive: -0.079 | inactive: 0.113 | inactive: 0.041 | inactive: -0.034
LRRFIP2 (UniProt Q9Y608) | inactive: 0.018 | inactive: 0.005 | inactive: -0.013 | inactive: 0.041 | inactive: 0.004 | inactive: 0.009 | inactive: 0.063 | inactive: 0.04 | inactive: 0.03 | inactive: -0.018
LSS (UniProt P48449) | inactive: 0.016 | inactive: -0.009 | inactive: 0.044 | inactive: -0.078 | active: 0.434 | inactive: -0.009 | inactive: -0.09 | inactive: 0.123 | inactive: -0.043 | inactive: 0
LRCH3 (UniProt Q96II8) | inactive: -0.009 | inactive: -0.01 | inactive: 0.03 | inactive: -0.051 | inactive: -0.058 | inactive: -0.022 | inactive: 0.022 | inactive: -0.031 | inactive: 0.004 | inactive: -0.047

Whole records as entered above. Values in the order: log2 fold change (vemurafenib) | log2 fold change [1] | log2 fold change (barasertib) | log2 fold change [2] | log2 fold change (volasertib) | log2 fold change [3] | log2 fold change [4] | log2 fold change [5] | log2 fold change (saracatinib) | log2 fold change (sotrastaurin)
LIN54 (UniProt Q6MZP7) is listed as inactive: 0.149 | inactive: -0.001 | inactive: 0.053 | inactive: 0.019 | inactive: -0.037 | inactive: 0.034 | inactive: -0.103 | inactive: 0.104 | inactive: -0.034 | inactive: 0.01
LRRFIP2 (UniProt Q9Y608) is listed as inactive: 0.018 | inactive: 0.005 | inactive: -0.013 | inactive: 0.041 | inactive: 0.004 | inactive: 0.009 | inactive: 0.063 | inactive: 0.04 | inactive: 0.03 | inactive: -0.018
